These results are taken from article doi:10.1101/2020.04.13.039982.

Amino acid sequences for entries named in this document (tags omitted). A change or cut given only in a name is not applied to a line headed by its entry.
UniProt P09733: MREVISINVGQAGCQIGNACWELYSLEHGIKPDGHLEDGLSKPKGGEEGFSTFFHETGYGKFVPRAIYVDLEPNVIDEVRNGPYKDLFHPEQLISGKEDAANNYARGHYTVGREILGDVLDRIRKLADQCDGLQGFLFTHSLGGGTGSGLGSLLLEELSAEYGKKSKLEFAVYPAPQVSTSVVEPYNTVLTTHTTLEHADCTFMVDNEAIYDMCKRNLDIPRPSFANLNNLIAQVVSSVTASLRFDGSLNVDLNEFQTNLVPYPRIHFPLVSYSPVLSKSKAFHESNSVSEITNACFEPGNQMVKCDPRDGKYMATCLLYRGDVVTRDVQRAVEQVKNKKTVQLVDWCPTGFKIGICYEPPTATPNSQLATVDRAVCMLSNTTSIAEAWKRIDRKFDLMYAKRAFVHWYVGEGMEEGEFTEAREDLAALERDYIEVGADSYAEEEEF

Assay [1] addresses LexADBD-Tub1 (S. cerevisiae) (UniProt P09733). The assay can be described thus: two-hybrid.
The target of assay [2] is LexADBD-Tub1^G437R (S. cerevisiae) (UniProt P09733). The assay can be described thus: two-hybrid.

These are yes or no findings as the source states them, for the method shown. Some entries that bind do so weakly or less than the wild type. Tags and fused reporters may be left off the sequences shown.

B1: Kip3 fused to the GAL4 activating domain (GAL4AD) (protein, UniProt P53086 1-805)
chain: MNVPETRQSSIVVAIRVRPFTSMEKTRLVNEASGAEANFPGLGDSSLILPMSNNSDSDIDIDAEEGSTRSKRNSLLRRKVIRPEGIRKIVDCVDDRMLIFDPADRNPLNKVSDQVLNSMRARATKATASSINNSNATNKFSSQRRRHGGEIKFVFDKLFDETSSQARVYKETTSPLLDSVLDGFNSTVFAYGATGCGKTYTVSGTPSQPGIIFLAMEELFNKITDLKDEKDFEISLSYLEIYNERIRDLLKPETPSKRLVIREDTQNHIKVANLSYHHPNTVEDVMDLVVQGNINRTTSPTEANEVSSRSHAVLQIHIMQTNKLVDLTSQHTFATLSIIDLAGSERAAATRNRGIRLHEGANINRSLLALGNCINALCLNDGSRSCHIPYRDSKLTRLLKFSLGGNCKTVMIVCISPSSSHYDETLNTLKYANRAKEIKTKIIRNQQSLSRHVGSYLKMITEQKRQIEELREREEKMISLKLTKYKLNKEKIQLAINECVNRVQQTYAGVETYQVAKTLKSLILCKRRFLQMVKLEVDNLILLFEREESTAAEMQPVISNCRMISGQLYNKIHELEMKFDETDTLSSVIHQVHSIDLNKLREMEDWDETYDLVYLESCLNQISELQRNEILVNSSIMTEKLMSDPGLNSRFKFLSKWLMNRTPNIESIIQDLVHIDEEFESFARTFIANPDSNFTNTNINIINTTAADLAVPAETLQRQNFSQKKVKWTSPDLSPSPMIEPQPELEPELHQDQDAIASEVDVSMQDTTFNEQGPSTPSAPTTAVPRRKMRSSLLTHQSLLATARK
B1: the binding result in assay [1] and in assay [2] was “binds” each time.

B2: She1-Gal4 activation domain (AD) fusion (protein, UniProt P38200 1-338)
chain: MNDKLQEEHNEKDTTSQINGFTPPHMSIDFHSNNNSNIIETIGVSKRLGNSVLSELDSRASSKFEFLKDQSEQQYNGDKNNEPKSGSYNINEFFQAKHDSQFGQMESLDTHYTLLHTPKRKSQHAIPQDRSDSMKRSRPSRSIPYTTPVVNDITRRIRRLKLRNSLVNGNDIVARARSMQANSNINSIKNTPLSKPKPFMHKPNFLMPTTNSLNKINSAHRNTSSSSTASSIPRSKVHRSISIRDLHAKTKPVERTPVAQGTNSQLKNSVSVFDRLYKQTTFSRSTSMNNLSSGTSAKSKEHTNVKTRLVKSKTSGSLSSNLKQSTATGTKSDRPIWR
Take B2: the binding result in assay [1] was “binds”; in assay [2] it was “no binding”.

B3: Bim1 fused to the GAL4 activating domain (GAL4AD) (protein, UniProt P40013 1-344)
chain: MSAGIGESRTELLTWLNGLLNLNYKKIEECGTGAAYCQIMDSIYGDLPMNRVKFNATAEYEFQTNYKILQSCFSRHGIEKTVYVDKLIRCKFQDNLEFLQWLKKHWIRHKDESVYDPDARRKYRPIITNNSATKPRTVSNPTTAKRSSSTGTGSAMSGGLATRHSSLGINGSRKTSVTQGQLVAIQAELTKSQETIGSLNEEIEQYKGTVSTLEIEREFYFNKLRDIEILVHTTQDLINEGVYKFNDETITGHGNGNGGALLRFVKKVESILYATAEGFEMNDGEDELNDKNLGEHGTVPNQGGYANSNGEVNGNEGSNHDVIMQNDEGEVGVSNNLIIDEETF
With B3, the binding result in assay [1] and in assay [2] was “binds” in each case.
